Measured values taken from patent US10064889B2, “Mercapto-modified biocompatible macromolecule derivatives with low degree of mercapto-modification and the cross-linked materials and uses thereof” (Bioregen Biomedical (Changzhou) Co., Ltd., priority 2010, dated 2018).
For at least one compound, name, drawing or mass did not settle the structure.

Assay: Drug release from drug-containing disulfide-bond cross-linked hyaluronic acid hydrogel into phosphate buffer solution
Assay type: physicochemical
Settings: hydrogel 10 mg/ml hyaluronic acid, degree of mercapto-modification 3.97%, 37° C., 100 rpm
Description: In the preparation process of the disulfide-bond cross-linked hyaluronic acid hydrogel of Example 6 (having a concentration of hyaluronic acid of 10 mg/ml and a degree of mercapto-modification of 3.97%), 0.1-10 mg cortical hormones (e.g. Beclomethasone, Beclomethasone dipropionate, Budesonide, Dexamethasone, Prednisolone, and Prednisone) were added respectively to make the cortical hormones uniformly dispersed in the prepared cross-linked hydrogel.
10 ml phosphate buffer solution was added to 0.2 ml of the above drug-containing cross-linked hydrogel placed into a 15 ml plastic centrifugal tube. Then centrifugal tube was placed in a shaker (37° C., 100 rpm), and the ultraviolet absorption of the drugs in the supernatant was measured at regular intervals. The measurement wavelengths were as follows: Beclomethasone 246 nm, Beclomethasone dipropionate 240 nm, Budesonide 248 nm, Dexamethasone 242 nm, Prednisolone 248 nm, and Prednisone 244 nm.

| Structure (SMILES) | Cumulative release percentage of the drug (7 days) [%] | Cumulative release percentage of the drug (14 days) [%] | Cumulative release percentage of the drug (21 days) [%] |
| --- | --- | --- | --- |
| C[C@@H]1C[C@H]2[C@@H]3CCC4=CC(=O)C=C[C@]4(C)[C@@]3(F)[C@@H](O)C[C@]2(C)[C@@]1(O)C(=O)CO [Dexamethasone] | 41 | 63 | 75 |
| CCCC1O[C@@H]2C[C@H]3[C@@H]4CCC5=CC(=O)C=C[C@]5(C)[C@H]4[C@@H](O)C[C@]3(C)[C@]2(C(=O)CO)O1 (stereo partly drawn) [Budesonide] | 26 | 43 | 61 |
